Results on one molecule are retold here after publication PMC12596378.

Chains of the proteins cited; added tags and fusions are not shown.
UniProt P07305: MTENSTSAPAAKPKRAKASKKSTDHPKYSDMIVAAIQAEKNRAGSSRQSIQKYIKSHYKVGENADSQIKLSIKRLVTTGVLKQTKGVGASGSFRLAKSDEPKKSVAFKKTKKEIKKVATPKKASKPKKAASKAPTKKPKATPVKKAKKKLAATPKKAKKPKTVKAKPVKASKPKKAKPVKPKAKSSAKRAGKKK

This experiment deals with histone H1.0, endogenous in A549 cells (human (endogenous in A549)) (UniProt P07305). The experiment can be described thus: co-IP; A549 cell lysates; HMGB1, NS1 or H1.0 antibody on SureBeads Protein G, 2 h room temperature; cells RSV-infected 24 h, or NS1/control lentivirus 72 h, or RSV 6 h then siNS1/siCON 24 h.

Results are given in words; binding and its absence hold for the method and conditions named. Binding seen in cells or lysates may run through a third protein. Some results given as binding are weak or reduced against the parent protein; the word gives no strength. Tags and fused reporters may be left off the sequences shown.

B1: NS1 expressed from the NS1 lentivirus (LV5-NS1-GFP) in A549 cells (protein, UniProt P0DOE9 1-139)
chain: MGSNSLSMIKVRLQNLFDNDEVALLKITCYTDKLIHLTNALAKAVIHTIKLNGIVFVHVITSSDICPNNNIVVKSNFTTMPVLQNGGYIWEMMELTHCSQPNGLLDDNCEIKFSKKLSDSTMTNYMNQLSELLGFDLNP
Consider B1, for which the binding result is recorded as “binds”.
